Measurements reported in PubChem BioAssay AID2685 (National Center for Advancing Translational Sciences (NCATS), 2010).
This is one part of the list. These are further read-outs of the screen, such as a control signal, another cell line or another target. No call is given for them. The list favours compounds with an active or inconclusive main result. The note in brackets gives the kind of curve behind each potency; many fits are weak.

Test: qHTS Assay for Lipid Storage Modulators in Drosophila S3 Cells;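 as to cell number change: cells counted by Cell Tracker Red CMTPX staining in the red channel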
Details: BODIPY lipid droplet fluorescence, 18-24 h; for cell number change: measured here: cell count max response, cells fed with added oleic acid
How it was run: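 Drosophila S3 cells loaded with oleic acid (400 uM, as added) and compounds at several concentrations; lipid droplets imaged by 488-nm laser-scanning cytometry, 500–530 nm intensity and object ratio to cell channel. Percent activity normalized to 20 uM Triacsin C.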

[1] = measured here: cell number channel AC50, cells fed with added oleic acid
[2] = measured here: lipid fluorescence (Fed channel) AC50, cells fed with added oleic acid

Row | Structure (SMILES) | cell number change [%] | AC50 [1] | AC50 [2]
1 | COc1ccc(CCN2CC(C(=O)NCc3cc(C)on3)CCC2=O)cc1 (stereo unspecified) | 35.8 | 29.1 µM [rising, single point] | 29.1 µM [rising, single point]
2 | CCCCC1(C(=O)OCC)NC(c2ccc(O)cc2)C2C(=O)N(c3ccccc3)C(=O)C21 (stereo unspecified) | 17.9 | – | 16.4 µM [falling, single point]
3 | CC(=O)c1ccc(NC(=S)NC(=O)c2c(Cl)c(C)nn2C)cc1 | 22.1 | – | 7.31 µM [rising, partial curve]
4 | O=C(CN1C(=O)CSC1=O)Nc1ccc2c(c1)OCCO2 | -33.8 | 0.164 µM [falling, full curve, poor fit] | –
5 | CCOc1cc(C2NC(=O)NC(c3ccccc3)=C2C(=O)c2ccccc2)c(Br)cc1OCC(=O)O (stereo unspecified) | 133 | 6.51 µM [falling, single point] | 29.1 µM [rising, single point]
6 | CC1CCCC(NC(=O)C2CCN(S(=O)(=O)c3cnc[nH]3)CC2)C1C (stereo unspecified) | 13.4 | – | 18.4 µM [rising, partial curve]
7 | Cc1[nH]c2ccccc2c1/C=N/NC(=O)c1cc(-c2ccncc2)nc2ccccc12 | -2.89 | – | –
8 | OCC[C@H]1C[C@H](O)[C@@H](O)[C@@]2(CCc3ccccc3CO2)O1 | -6.56 | – | 3.26 µM [falling, single point]
9 | CCOc1ccc(C(=O)NC(=S)Nc2cccc(NC(=O)c3ccco3)c2)cc1[N+](=O)[O-] | -47.9 | 29.1 µM [falling, single point] | 20.6 µM [falling, single point]
10 | COc1ccc(OC(C)=O)c(C2c3cc(OC)c(OC)cc3CCN2C(C)=O)c1 (stereo unspecified) | 16.6 | 0.259 µM [rising, full curve, poor fit] | 0.92 µM [rising, partial curve]
11 | O=C1C2C3C=CC(CC3)C2C(=O)N1c1ccc(F)cc1 (stereo unspecified) | -5.11 | – | 0.058 µM [falling, full curve, poor fit]
12 | CC(=O)NC(Cc1ccccc1)C(=O)OCC(=O)c1ccc(Cl)cc1 (stereo unspecified) | 7.37 | – | 6.51 µM [falling, single point]
13 | O=C(CCCc1nc(-c2ccc(Cl)cc2)no1)N1CCOCC1 | -31.2 | 10.3 µM [falling, partial curve, poor fit] | 0.146 µM [falling, full curve, poor fit]
14 | CNS(=O)(=O)c1cccc(C(=O)NCC(C)(C)N2CCCCC2)c1 | -26.4 | – | –
15 | O=C(Nc1ccc(Cl)c(Cl)c1)N1CCOCC1 | -8.11 | 6.51 µM [falling, single point] | –
16 | COc1ccc(C2=NOC(COC(=O)c3ccc4ccccc4n3)C2)cc1 (stereo unspecified) | 9.97 | – | 16.4 µM [rising, single point]
17 | O=C(Nc1ccccc1O)c1cc2cc(Br)ccc2oc1=O | 4.5 | – | 0.58 µM [rising, single point]
18 | CCN(C(=O)c1c(N)cnn1C)c1ccccc1 | 31.5 | – | –
19 | CCCCC(=O)Nc1ccc(C(N)=O)cc1 | -4.43 | – | 6.51 µM [falling, single point]
20 | COc1ccc(CNc2ncc(-c3ccc(Br)cc3)n2C)cc1OC | -14 | – | 29.1 µM [falling, single point]
21 | Cc1ccc(C)c(NC(=O)C2CCCN(S(=O)(=O)c3c(C)nn(C)c3C)C2)c1 (stereo unspecified) | 16.1 | – | –

Row | Structure (SMILES) | cell number change [%] | AC50 [1] | AC50 [2]
22 | CCOC(=O)c1c(NC(=O)CSc2nc(C)cc(C)c2C#N)sc(C(C)=O)c1C | -0.71 | – | –
23 | COc1cc2c(cc1/C=C1/NC(=O)N(c3ccccc3)C1=O)OCO2 | 61.1 | 29.1 µM [rising, single point] | 0.82 µM [rising, partial curve]
24 | S=C1NNC2(CC3CC2C2CCCC32)NN1 (stereo unspecified) | -38.1 | – | –
25 | CSCCC(NC(N)=O)C(=O)Nc1ccc(C)cc1 (stereo unspecified) | -23.6 | – | –
26 | COc1ccc(C2C(C#N)=C(N)Oc3cc(N)ccc32)cc1OC (stereo unspecified) | – | – | 20.6 µM [rising, partial curve, poor fit]
27 | CCCc1cc(-c2n[nH]c(C)c2-c2ccc(C(=O)OCC)o2)c(O)cc1O | -70.8 | 25.9 µM [falling, single point] | 23.1 µM [falling, single point]
28 | O=C(O)CC(NC(=O)c1ccc2c(c1)OCO2)c1cccc([N+](=O)[O-])c1 (stereo unspecified) | 20.2 | 0.731 µM [falling, single point] | –
29 | COc1ccc(CNC(=O)c2nccnc2CO)cc1 | 14.8 | – | 29.1 µM [rising, single point]
30 | Cc1cc2c(cc1S(=O)(=O)Nc1c(C)cccc1C)n(C)c(=O)c(=O)n2C | -35.2 | 29.1 µM [falling, single point] | –
31 | Cc1cccc(C)c1OCC(=O)Nc1ccccc1C(F)(F)F | -2.06 | – | –
32 | COc1ccc(NC(=O)Cn2nnc(C(=O)NCc3ccc4c(c3)OCO4)c2N)cc1 | 6.92 | – | –
33 | O=C(Nc1ccon1)Nc1ccc(Cl)cc1Cl | 40.7 | 35.5 µM [rising, single point] | 0.708 µM [rising, full curve, poor fit]
34 | O=C(COC(=O)c1cc(S(=O)(=O)N2CCOCC2)c(Cl)cc1Cl)Nc1ncc(C(F)(F)F)cc1Cl | -49.7 | 9.2 µM [falling, partial curve, poor fit] | 4.11 µM [falling, partial curve, poor fit]
35 | CCCCn1c(N)c(N(C)C(=O)c2ccc(Br)o2)c(=O)[nH]c1=O | 20.4 | – | 0.0058 µM [rising, full curve]
36 | Cn1c(C(=O)N2CCN(Cc3ccc4c(c3)OCO4)CC2)cc2sccc21 | -0.97 | – | 0.326 µM [rising, full curve, poor fit]
37 | COC(=O)c1cc(S(=O)(=O)NCC2CCN(CCc3cccs3)CC2)c[nH]1 | 9.85 | – | 29.1 µM [rising, single point]
38 | CCn1c(=O)c(C(=O)Nn2c(C)nc3ccccc3c2=O)c(O)c2ccccc21 | 52.7 | 2.91 µM [rising, partial curve] | 13 µM [rising, partial curve, poor fit]
39 | Cc1ccc(CNC(=O)NC2CCCCC2)cc1 | – | – | 3.66 µM [rising, single point]
40 | COc1ccc(N2CCN(C(=O)Cn3cnc4c(cnn4-c4ccc(C)cc4)c3=O)CC2)cc1 | 13 | – | –
41 | C=CCN(C(=O)c1ccc2c(c1)nnn2C)c1ccccc1 | -7.98 | – | –
42 | COc1ccc(NC(=O)c2cc3n(n2)C(C(F)(F)F)CC(c2ccc4c(c2)OCO4)N3)cc1OC (stereo unspecified) | – | – | 29.1 µM [falling, single point]

Row | Structure (SMILES) | cell number change [%] | AC50 [1] | AC50 [2]
43 | CN(C(=O)COC(=O)c1ccc(Cl)nc1)c1c(N)n(Cc2ccccc2)c(=O)[nH]c1=O | 13.2 | – | 3.66 µM [rising, single point]
44 | CN(C(=O)CSc1nnc(-c2ccc(F)cc2)c2ccccc12)C1CCS(=O)(=O)C1 (stereo unspecified) | -32.2 | 29.1 µM [falling, single point] | 0.58 µM [rising, single point]
45 | S=C(NCCc1ccccc1)NC1CCCCCC1 | – | 6.51 µM [falling, single point] | 0.259 µM [falling, full curve]
46 | Cc1ccnc2nc(C(=O)OCC(=O)N3CC(C)CC(C)C3)nn12 (stereo unspecified) | 2.81 | – | –
47 | CC(C)NS(=O)(=O)c1ccc(CCC(=O)NCc2ccco2)cc1 | -1.15 | – | 0.164 µM [falling, full curve, poor fit]
48 | CCC(C)(C)C1CCc2[nH]nc(C(=O)NCc3ccc(OC)cc3)c2C1 (stereo unspecified) | -41.5 | 29.1 µM [falling, single point] | –
49 | CCOc1ccccc1N=Nc1c(C)[nH]n(-c2ccccc2)c1=O | -16.2 | 3.66 µM [falling, single point] | –
50 | Cc1c(OCC(=O)NCCCn2ccnc2)ccc2c3c(c(=O)oc12)CCCC3 | – | – | 29.1 µM [falling, single point]
51 | CC(C)C(=O)Nc1nnc(Cc2ccccc2)s1 | -1.17 | – | 0.13 µM [falling, full curve, poor fit]
52 | Cc1ccc(NC(=O)CN(c2ccc(Cl)cc2)S(=O)(=O)c2cc([N+](=O)[O-])ccc2Cl)cc1 | 38.8 | 16.4 µM [rising, single point] | 8.2 µM [rising, partial curve]
53 | CC(=O)c1cc2c(cc1NS(=O)(=O)c1ccc(C)cc1)OCO2 | 11.8 | – | –
54 | Cc1cccc(C)c1NC(=O)COC(=O)C1C2CC3OC(=O)C1C3C2 (stereo unspecified) | 10.7 | – | 2.31 µM [rising, full curve]
55 | COc1ccc(/C=N/Nc2cc(N3CCCC3)nc(N3CCCC3)n2)cc1 | -30 | 23.1 µM [falling, single point] | 18.4 µM [falling, single point]
56 | CCOC(=O)C1=C(c2ccccc2)OC(N)=C(C#N)C1C1CCCCC1 (stereo unspecified) | -23.7 | – | –
57 | CCN1CCCC1CNC(=O)c1ccc(N2CCOCC2)c(NS(=O)(=O)c2ccc(OC)cc2)c1 (stereo unspecified) | 9.99 | – | 0.517 µM [falling, single point]
58 | CC1(C)CC(=O)C(C2c3ccccc3Oc3ccccc32)C(=O)C1 | -8.8 | – | 25.9 µM [falling, single point]
59 | CCc1nc(C)cn1S(=O)(=O)c1ccc(Br)cc1 | – | – | 29.1 µM [rising, single point]
60 | O=C(CCCn1c(=S)[nH]c2ccccc2c1=O)N1CCOCC1 | -3.16 | – | –
61 | Cc1ccc(S(=O)(=O)NCc2ccccn2)c(C)c1 | 25.6 | – | –
62 | CC(C)Oc1cccc(C(=O)NC(=S)N2CCN(c3ccc(C(F)(F)F)cc3[N+](=O)[O-])CC2)c1 | 31.2 | 0.517 µM [rising, partial curve, poor fit] | –

3 of these compounds, set out differently:
Row	Structure (SMILES)	cell number change [%]	AC50 [1]	AC50 [2]
43	CN(C(=O)COC(=O)c1ccc(Cl)nc1)c1c(N)n(Cc2ccccc2)c(=O)[nH]c1=O	13.2	–	3.66 µM [rising, single point]
54	Cc1cccc(C)c1NC(=O)COC(=O)C1C2CC3OC(=O)C1C3C2 (stereo unspecified)	10.7	–	2.31 µM [rising, full curve]
62	CC(C)Oc1cccc(C(=O)NC(=S)N2CCN(c3ccc(C(F)(F)F)cc3[N+](=O)[O-])CC2)c1	31.2	0.517 µM [rising, partial curve, poor fit]	–
